The list does not hold the whole screen: it is rich in T/C values a quarter to a half above the control, in often repeated tests (any T/C) and in doses without a T/C. Other doses and runs of a compound stand elsewhere. T/C is the treated group as % of the vehicle group. Some doses have a count of surviving animals in place of a T/C: the source files T/C as zero there, which appears to mark a toxic dose or a test without result, not a measured value. Some doses without a T/C left all or most animals alive at the check, yet need not have been tolerated: survival well below the control is almost never listed, so the zero probably covers shortened survival too. Survivors were counted at the toxicity check, usually on the fifth day, unless a day is given; later deaths do not show. Schedules are NCI's codes, taken here to give the interval after Q, in days (D) or hours (H), and the number of doses after X. Some entries were tested several times; their values stand side by side, smallest first. Some schedules carry Z or #; the key to these is not given. For survival time, this PubChem deposit counts one and a half times the control or more as active, and values a quarter to a half above the control carry no call in these data; other NCI protocols may use other cut-offs.

For this assay, the system named is BDF1 mice, P1081 chloroleukemia ip, survival T/C. Description: NCI In Vivo Anticancer Drug Screen. Data for tumor model P1081 Chloroleukemia (intraperitoneal) in B6D2F1 (BDF1) mice. To be noted: T/C endpoint: mean survival time, higher T/C = longer survival. On the procedure: The antitumor activity of compounds was measured in mice bearing transplantable tumors. Survival or tumor size were measured and the results are expressed as the measurement made in the treated group (T) divided by the measurement made in the vehicle treated control group (C). The tumor model used in this assay is P1081 Chloroleukemia (intraperitoneal) in B6D2F1 (BDF1) mice

Where [1] appears, read: dose: 25.0 mg/kg/injection, schedule: Q01DX Z (ip), vehicle: carboxymethylcellulose (CMC).
[2] abbreviates: dose: 50.0 mg/kg/injection, schedule: Q01DX Z (ip), vehicle: carboxymethylcellulose (CMC).
The mark [3] stands for this setting: dose: 8.0 mg/kg/injection, schedule: Q01DX010 (ip), vehicle: saline.
Setting [4] is: dose: 125.0 mg/kg/injection, schedule: Q01DX Z (ip), vehicle: carboxymethylcellulose (CMC).
The mark [5] stands for this setting: dose: 250.0 mg/kg/injection, schedule: Q01DX Z (ip), vehicle: carboxymethylcellulose (CMC).
Setting [6] is: dose: 500.0 mg/kg/injection, schedule: Q01DX Z (ip), vehicle: carboxymethylcellulose (CMC).
Where [7] appears, read: dose: 100.0 mg/kg/injection, schedule: Q01DX Z (ip), vehicle: saline.
Setting [8] is: dose: 120.0 mg/kg/injection, schedule: Q01DX Z (ip), vehicle: carboxymethylcellulose (CMC).

Consider `CN(C)[C@@H]1C(=O)C(C(N)=O)=C(O)[C@@]2(O)C(=O)C3=C(O)c4c(O)cccc4C[C@H]3C[C@@H]12`, for which the survivor count runs as follows: (dose: 60.0 mg/kg/injection, schedule: Q01DX010 (ip), vehicle: saline) 7 of 7; (dose: 120.0 mg/kg/injection, schedule: Q01DX010 (ip), vehicle: saline) 0 of 7.
For `CCCSc1ncnc2nc[nH]c12`, the T/C is, setting by setting: under setting [1], 131 % of control; under setting [2], 143 % of control. In addition, the survivor count under setting [1] is 6 of 6; the survivor count under setting [2] is 6 of 6; the survivor count (dose: 200.0 mg/kg/injection, schedule: Q01DX Z (ip), vehicle: carboxymethylcellulose (CMC)) was 1 of 6 and 3 of 6.
For the molecule `Nc1nc(=S)c2ncn(C3OC(CO)C(O)C3O)c2[nH]1` (centres undefined), the T/C is 142 % of control (dose: 1.25 mg/kg/injection, schedule: Q01DX Z (ip), vehicle: carboxymethylcellulose (CMC)); 142 % of control (dose: 2.5 mg/kg/injection, schedule: Q01DX Z (ip), vehicle: carboxymethylcellulose (CMC)); 133 % of control under setting [3]; 138 % of control (dose: 16.0 mg/kg/injection, schedule: Q01DX010 (ip), vehicle: saline). The survivor count was 5 of 6 and 6 of 6 (dose: 10.0 mg/kg/injection, schedule: Q01DX Z (ip), vehicle: carboxymethylcellulose (CMC)); 6 of 6 (dose: 20.0 mg/kg/injection, schedule: Q01DX Z (ip), vehicle: carboxymethylcellulose (CMC)); 6 of 6 (dose: 40.0 mg/kg/injection, schedule: Q01DX Z (ip), vehicle: carboxymethylcellulose (CMC)).
As to `CC(=O)[C@H]1CC[C@H]2[C@@H]3C[C@H](C)C4=CC(=O)CC[C@]4(C)[C@H]3C(=O)C[C@]12C`, the survivor count runs as follows: (dose: 400.0 mg/kg/injection, schedule: Q01DX Z (sc), vehicle: steroid suspending solution) 3 of 6; (dose: 800.0 mg/kg/injection, schedule: Q01DX Z (sc), vehicle: steroid suspending solution) 5 of 6.
Consider `Nc1ncnc2[nH]ncc12`, for which the survivor count runs as follows: (dose: 6.25 mg/kg/injection, schedule: Q01DX Z (ip), vehicle: carboxymethylcellulose (CMC)) 3 of 6; (dose: 12.5 mg/kg/injection, schedule: Q01DX Z (ip), vehicle: carboxymethylcellulose (CMC)) 5 of 6; under setting [1], 5 of 6; under setting [2], 0 of 6.
Turning to `CO[C@@H]1[C@@H](OC2OC(C)C(OC3CC(C)(O)C(OC(=O)CC(C)C)C(C)O3)C(N(C)C)C2O)[C@@H](CC=O)C[C@@H](C)C(=O)/C=C/C2O[C@H]2C[C@@H](C)OC(=O)C[C@H]1OC(C)=O` (some centres undefined), where the note is “dose: 300.0 mg/kg/injection, schedule: Q01DX010 (ip), vehicle: saline”, the T/C is 125 % of control.
Turning to `O=C(Nc1ccc(C2=NCCN2)cc1)c1cccc(C(=O)Nc2ccc(C3=NCCN3)cc2)c1`, the survivor count (dose: 128.0 mg/kg/injection, schedule: Q01DX010 (ip), vehicle: saline) is on record as 6 of 10 and the survivor count (dose: 300.0 mg/kg/injection, schedule: Q01DX Z (ip), vehicle: water) is reported as 3 of 6. Besides, the T/C (dose: 150.0 mg/kg/injection, schedule: Q01DX Z (ip), vehicle: carboxymethylcellulose (CMC)) is 135 % of control.
Turning to `CC(=O)Nc1ccc2nc3ccc(NC(C)=O)cc3[n+](-c3ccccc3)c2c1`, the survivor count (dose: 100.0 mg/kg/injection, schedule: Q01DX Z (ip), vehicle: carboxymethylcellulose (CMC)) was 6 of 6.
For `CCOC(=O)NP(=O)(N1CC1(C)C)N1CC1(C)C` (centres undefined), the T/C was 150, 196, 202 % of control under setting [4]; 142, 186, 225 % of control under setting [5]; 130 % of control under setting [6]. The survivor count under setting [4] was 3 of 6 and 6 of 6; the survivor count under setting [5] is reported as 0 of 6; the survivor count under setting [6] was 2 of 6 and 6 of 6; the survivor count (dose: 1000.0 mg/kg/injection, schedule: Q01DX Z (ip), vehicle: carboxymethylcellulose (CMC)) was 0 of 6.
As to `C[C@H](N)C(=O)N[C@@H]1[C@H]2C(=C(O)C[C@@H](O)[C@@H]2O)C(=O)O[C@@H]1C`, the survivor count (dose: 2000.0 mg/kg/injection, schedule: Q01DX Z (ip), vehicle: saline) is reported as 5 of 6.
For `O=P1(N(CCCl)CCCl)NCCCO1` (centres undefined), the T/C is, setting by setting: (dose: 12.5 mg/kg/injection, schedule: Q01DX Z (ip), vehicle: saline) 101, 106, 121, 142 % of control; (dose: 25.0 mg/kg/injection, schedule: Q01DX Z (ip), vehicle: saline) 124, 135, 156, 172 % of control; (dose: 45.0 mg/kg/injection, schedule: Q01DX010 (ip), vehicle: saline) 128 % of control; (dose: 50.0 mg/kg/injection, schedule: Q01DX Z (ip), vehicle: saline) 105, 115, 120, 173 % of control. For the same molecule, the survivor count reads like this: (dose: 90.0 mg/kg/injection, schedule: Q01DX010 (ip), vehicle: saline) 6 of 6; under setting [7], 6 of 6; (dose: 180.0 mg/kg/injection, schedule: Q01DX010 (ip), vehicle: saline) 6 of 6; (dose: 200.0 mg/kg/injection, schedule: Q01DX Z (ip), vehicle: saline) 0 of 6.
`O=c1[nH]cc(F)c(=O)[nH]1`: the T/C was 127 and 130 % of control (dose: 5.0 mg/kg/injection, schedule: Q01DX010 (ip), vehicle: saline); 135 % of control (dose: 6.25 mg/kg/injection, schedule: Q01DX Z (ip), vehicle: saline). The survivor count under setting [7] is 6 of 6.
With `CC[n+]1c(-c2ccccc2)c2cc(N)ccc2c2ccc(N)cc21`, the T/C is, setting by setting: (dose: 1.25 mg/kg/injection, schedule: Q01DX010 (ip), vehicle: saline) 140 % of control; (dose: 10.0 mg/kg/injection, schedule: Q01DX010 (ip), vehicle: saline) 140 and 144 % of control.
Consider `[I][Hg][CH2]C1COC([CH2][Hg][I])CO1` (centres undefined), for which the T/C (dose: 3.13 mg/kg/injection, schedule: Q01DX010 (ip), vehicle: saline) is 130 % of control; the T/C (dose: 60.0 mg/kg/injection, schedule: Q01DX Z (ip), vehicle: carboxymethylcellulose (CMC)) was 139 % of control; the T/C under setting [8] is 131 % of control. Further, the survivor count reads like this: under setting [8], 0 of 6; (dose: 240.0 mg/kg/injection, schedule: Q01DX Z (ip), vehicle: carboxymethylcellulose (CMC)) 0 of 6; (dose: 480.0 mg/kg/injection, schedule: Q01DX Z (ip), vehicle: carboxymethylcellulose (CMC)) 0 of 6.
As to `COc1cc2c(c(OC)c1OC)-c1ccc(N)c(=O)cc1[C@@H](NC(C)=O)CC2`, the T/C (dose: 2.0 mg/kg/injection, schedule: Q01DX010 (ip), vehicle: saline) is 140 % of control. Further, the survivor count was 6 of 7 and 6 of 6 (dose: 4.0 mg/kg/injection, schedule: Q01DX010 (ip), vehicle: saline); 6 of 6 under setting [3].
For the molecule `Cn1c(N)nc2nc[nH]c2c1=S`, where the note is “dose: 20.0 mg/kg/injection, schedule: Q01DX010 (ip), vehicle: saline”, the T/C was 125 % of control.
Consider `CCN(CC)C(=S)S`, for which the survivor count (dose: 500.0 mg/kg/injection, schedule: Q01DX Z (ip), vehicle: other) is recorded as 5 of 6.
In the case of `CC(CCC(C)OS(C)(=O)=O)OS(C)(=O)=O` (centres undefined), the T/C (dose: 32.0 mg/kg/injection, schedule: Q01DX010 (ip), vehicle: saline) is 135 % of control. Also, the survivor count (dose: 80.0 mg/kg/injection, schedule: Q01DX Z (ip), vehicle: carboxymethylcellulose (CMC)) is reported as 6 of 6.

These data come from PubChem BioAssay AID246 (DTP/NCI, 2004).
